These are yes or no findings as the source states them, for the method shown. Some results given as binding are weak or reduced against the parent protein; the word gives no strength.
Experiments:
[1] = biological target: Recombinant IGF-I (human) (human) (UniProt P05019); experiment: BIAcore, IGF-I immobilised by amine coupling, pIGFBP-1 injected at 10 µl/min after 2 h with partially purified azurocidin, mean sensorgram
[2] = biological target: Recombinant IGF-I (human) (human) (UniProt P05019); experiment: BIAcore, IGF-I surface; ks (slope of dRU/dt against RU over 21-120 s) plotted against nM IGFBP-1 (as intact), after 2 h with partially purified azurocidin
[3] = biological target: Recombinant IGF-I (human) (human) (UniProt P05019); experiment: BIAcore, IGF-I immobilised by amine coupling, pIGFBP-1 injected at 10 µl/min after 4 h with partially purified azurocidin, mean sensorgram

Chains of the proteins cited; added tags and fusions are not shown. Residues count along the entry.
UniProt P05019, residues 49-118: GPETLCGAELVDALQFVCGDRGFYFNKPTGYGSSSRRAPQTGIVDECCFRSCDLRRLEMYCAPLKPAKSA

B1: Recombinant phosphorylated IGFBP-1 after 2-h proteolysis by partially purified azurocidin (protein, human)
chain 1: APWQCAPCSAEKLALCPPVSASCSEVTRSAGCGCCPMCALPLGAACGVATARCARGLSCRALPGEQQPLHALTRGQGACVQESDASAPHAAEAGSPESPESTEITEEELLDNFHLMAPSEEDHSILWDAI
chain 2: STYDGSKALHVTNIKKWKEPCRIELYRVVESLAKAQETSGEEISKFYLPNCNKNGFYHSRQCETSMDGEAGLCWCVYPWNGKRIPGSPEIRGDPNCQIYFNVQN
modifications: from the phosphorylated protein; sites not determined
Q: B1 was tested. Which binding [1] did it give?
A: Its binding is “binds”.

Q: What about the binding [2] of the same binder?
A: Its binding is “binds”.

B2: Recombinant phosphorylated IGFBP-1 after 4-h proteolysis by partially purified azurocidin (protein, human)
chain 1: APWQCAPCSAEKLALCPPVSASCSEVTRSAGCGCCPMCALPLGAACGVATARCARGLSCRALPGEQQPLHALTRGQGACVQESDASAPHAAEAGSPESPESTEITEEELLDNFHLMAPSEEDHSILWDAI
chain 2: STYDGSKALHVTNIKKWKEPCRIELYRVVESLAKAQETSGEEISKFYLPNCNKNGFYHSRQCETSMDGEAGLCWCVYPWNGKRIPGSPEIRGDPNCQIYFNVQN
modifications: from the phosphorylated protein; sites not determined
Q: B2 was tested. Which binding [3] did it give?
A: Its binding is “binds”.

Reference: US20100129344A1, “MEDICAL USES AND THERAPIES BASED UPON THE ACTION OF AZUROCIDIN ON IGFBP-1” (priority 2005, published 2010)
